Test results from PMC5619756.
These are yes or no findings as the source states them, for the method shown. Binding seen in cells or lysates may run through a third protein. Some binding calls cover weakened binding; strength is not graded here.

Protein sequences, listed by entry. Tags and fused reporters are not part of them. Lines headed by an entry give the natural chain unless they say otherwise; changes in a name come on top.
UniProt Q05086: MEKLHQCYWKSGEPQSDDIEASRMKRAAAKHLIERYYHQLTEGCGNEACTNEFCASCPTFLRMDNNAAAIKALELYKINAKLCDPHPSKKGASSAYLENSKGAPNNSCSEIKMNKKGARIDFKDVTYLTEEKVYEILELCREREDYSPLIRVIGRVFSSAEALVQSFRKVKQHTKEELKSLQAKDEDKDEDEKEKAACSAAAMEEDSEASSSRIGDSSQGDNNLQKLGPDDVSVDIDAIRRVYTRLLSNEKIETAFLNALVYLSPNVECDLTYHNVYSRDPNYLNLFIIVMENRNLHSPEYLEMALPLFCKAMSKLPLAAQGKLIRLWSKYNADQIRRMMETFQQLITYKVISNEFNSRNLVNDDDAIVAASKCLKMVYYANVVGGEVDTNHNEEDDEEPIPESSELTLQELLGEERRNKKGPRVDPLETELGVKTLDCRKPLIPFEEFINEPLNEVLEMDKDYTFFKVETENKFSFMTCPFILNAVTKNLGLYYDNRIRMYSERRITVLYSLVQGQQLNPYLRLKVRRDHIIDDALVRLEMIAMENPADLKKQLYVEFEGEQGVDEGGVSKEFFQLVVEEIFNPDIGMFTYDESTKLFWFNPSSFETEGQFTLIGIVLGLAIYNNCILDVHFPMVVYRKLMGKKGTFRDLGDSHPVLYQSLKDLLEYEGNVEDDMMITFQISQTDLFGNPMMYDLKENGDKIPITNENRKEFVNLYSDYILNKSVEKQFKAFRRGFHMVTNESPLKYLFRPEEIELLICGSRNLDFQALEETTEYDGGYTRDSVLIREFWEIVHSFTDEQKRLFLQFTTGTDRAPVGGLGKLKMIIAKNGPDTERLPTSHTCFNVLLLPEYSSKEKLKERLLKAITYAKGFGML
UniProt Q9JK66: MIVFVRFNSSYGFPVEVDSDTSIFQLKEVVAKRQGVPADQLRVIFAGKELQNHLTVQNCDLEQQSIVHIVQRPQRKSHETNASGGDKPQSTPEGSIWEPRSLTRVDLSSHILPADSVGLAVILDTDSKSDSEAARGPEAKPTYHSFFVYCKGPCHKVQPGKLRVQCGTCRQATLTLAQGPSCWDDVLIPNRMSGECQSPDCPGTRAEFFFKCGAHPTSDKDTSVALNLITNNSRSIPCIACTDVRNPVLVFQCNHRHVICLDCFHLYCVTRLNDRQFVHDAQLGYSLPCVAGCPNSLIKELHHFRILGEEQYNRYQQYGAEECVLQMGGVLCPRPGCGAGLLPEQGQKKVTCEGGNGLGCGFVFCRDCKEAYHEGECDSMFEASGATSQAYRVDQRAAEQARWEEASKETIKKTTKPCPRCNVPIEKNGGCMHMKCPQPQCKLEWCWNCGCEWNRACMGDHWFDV
UniProt Q05152: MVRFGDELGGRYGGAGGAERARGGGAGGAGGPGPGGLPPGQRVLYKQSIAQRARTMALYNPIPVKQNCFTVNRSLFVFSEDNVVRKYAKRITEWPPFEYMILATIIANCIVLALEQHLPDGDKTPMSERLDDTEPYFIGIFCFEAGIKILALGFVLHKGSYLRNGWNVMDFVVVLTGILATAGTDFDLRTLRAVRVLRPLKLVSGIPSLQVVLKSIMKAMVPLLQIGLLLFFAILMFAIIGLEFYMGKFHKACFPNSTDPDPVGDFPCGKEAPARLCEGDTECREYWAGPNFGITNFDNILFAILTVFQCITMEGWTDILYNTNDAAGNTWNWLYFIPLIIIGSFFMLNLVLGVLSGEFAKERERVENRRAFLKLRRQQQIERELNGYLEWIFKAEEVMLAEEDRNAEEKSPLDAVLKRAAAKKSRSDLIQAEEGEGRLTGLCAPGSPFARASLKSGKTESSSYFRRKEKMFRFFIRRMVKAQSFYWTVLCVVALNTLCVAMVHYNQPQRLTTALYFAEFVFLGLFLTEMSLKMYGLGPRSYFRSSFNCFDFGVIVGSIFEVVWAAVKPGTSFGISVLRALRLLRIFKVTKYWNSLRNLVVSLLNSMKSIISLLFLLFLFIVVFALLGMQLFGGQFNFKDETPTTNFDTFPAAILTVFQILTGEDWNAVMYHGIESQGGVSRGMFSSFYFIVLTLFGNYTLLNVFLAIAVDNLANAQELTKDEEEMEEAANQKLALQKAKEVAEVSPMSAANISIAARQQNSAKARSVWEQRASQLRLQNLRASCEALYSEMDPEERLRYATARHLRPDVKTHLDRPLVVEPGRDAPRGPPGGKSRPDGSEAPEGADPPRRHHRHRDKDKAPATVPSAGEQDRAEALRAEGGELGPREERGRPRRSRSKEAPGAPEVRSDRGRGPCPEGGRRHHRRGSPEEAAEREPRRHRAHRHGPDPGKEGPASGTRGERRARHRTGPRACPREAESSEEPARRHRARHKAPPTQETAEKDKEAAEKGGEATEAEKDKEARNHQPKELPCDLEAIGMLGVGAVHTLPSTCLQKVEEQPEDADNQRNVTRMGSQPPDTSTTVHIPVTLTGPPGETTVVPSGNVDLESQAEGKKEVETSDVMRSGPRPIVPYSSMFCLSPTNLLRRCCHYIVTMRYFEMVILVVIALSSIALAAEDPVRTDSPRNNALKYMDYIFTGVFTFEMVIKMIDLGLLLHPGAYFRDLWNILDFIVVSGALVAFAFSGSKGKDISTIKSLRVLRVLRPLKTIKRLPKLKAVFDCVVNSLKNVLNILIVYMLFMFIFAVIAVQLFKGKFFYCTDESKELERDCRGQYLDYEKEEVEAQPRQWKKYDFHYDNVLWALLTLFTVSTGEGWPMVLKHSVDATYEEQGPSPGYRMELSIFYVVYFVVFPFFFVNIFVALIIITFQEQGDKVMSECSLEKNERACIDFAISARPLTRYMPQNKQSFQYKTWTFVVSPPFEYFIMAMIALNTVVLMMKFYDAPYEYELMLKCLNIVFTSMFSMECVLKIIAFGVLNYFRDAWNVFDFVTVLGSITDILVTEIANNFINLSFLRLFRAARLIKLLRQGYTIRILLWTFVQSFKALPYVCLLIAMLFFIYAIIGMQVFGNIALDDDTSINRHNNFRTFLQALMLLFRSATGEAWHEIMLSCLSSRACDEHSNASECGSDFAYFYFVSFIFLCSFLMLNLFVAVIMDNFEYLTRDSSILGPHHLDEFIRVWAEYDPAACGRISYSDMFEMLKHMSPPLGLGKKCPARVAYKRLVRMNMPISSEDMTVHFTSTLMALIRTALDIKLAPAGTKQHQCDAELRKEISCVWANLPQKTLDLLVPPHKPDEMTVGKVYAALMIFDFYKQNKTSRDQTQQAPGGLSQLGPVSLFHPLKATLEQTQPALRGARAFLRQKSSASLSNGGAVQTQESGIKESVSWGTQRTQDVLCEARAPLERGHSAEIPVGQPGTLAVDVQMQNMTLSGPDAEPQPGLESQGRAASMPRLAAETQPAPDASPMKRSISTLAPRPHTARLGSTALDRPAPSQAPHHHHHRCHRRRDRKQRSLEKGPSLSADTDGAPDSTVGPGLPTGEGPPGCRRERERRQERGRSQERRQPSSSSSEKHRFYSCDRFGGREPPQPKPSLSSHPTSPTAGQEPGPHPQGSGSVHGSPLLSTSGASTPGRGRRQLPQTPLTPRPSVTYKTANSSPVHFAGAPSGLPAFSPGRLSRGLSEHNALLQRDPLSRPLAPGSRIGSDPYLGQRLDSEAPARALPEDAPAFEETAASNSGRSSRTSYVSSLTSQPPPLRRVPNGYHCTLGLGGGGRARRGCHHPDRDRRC
UniProt O60260: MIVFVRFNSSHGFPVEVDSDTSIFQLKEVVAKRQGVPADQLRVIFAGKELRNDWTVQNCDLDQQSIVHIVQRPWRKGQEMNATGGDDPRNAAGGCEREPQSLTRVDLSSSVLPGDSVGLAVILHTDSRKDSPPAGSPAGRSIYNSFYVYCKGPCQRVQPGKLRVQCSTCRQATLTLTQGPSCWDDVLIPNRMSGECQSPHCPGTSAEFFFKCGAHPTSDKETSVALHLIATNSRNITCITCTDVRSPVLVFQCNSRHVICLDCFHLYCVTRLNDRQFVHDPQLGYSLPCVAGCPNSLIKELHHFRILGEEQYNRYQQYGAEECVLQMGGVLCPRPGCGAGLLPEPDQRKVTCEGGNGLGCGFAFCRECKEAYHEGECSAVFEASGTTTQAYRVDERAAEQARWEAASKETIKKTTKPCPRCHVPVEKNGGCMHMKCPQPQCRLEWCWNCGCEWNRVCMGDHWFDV

Assays:
[1] = target: ubiquitin-protein ligase E3A (UBE3A), HA-tagged (human) (UniProt Q05086); assay: co-IP; lysates (RIPA buffer) of co-transfected HEK-293 cells; 1 mg protein with 3-5 ug specific or control (IgG0) antibody overnight at 4°C, rProtein G agarose, Western blot
[2] = target: Parkin, endogenous in rat brain (rat (endogenous in rat brain)) (UniProt Q9JK66); assay: co-IP; rat brain tissue lysate (RIPA buffer); 1 mg protein with 3-5 ug specific or control antibody overnight at 4°C, rProtein G agarose, Western blot
[3] = target: CaV2.2α1 subunit of the N-type calcium channel, GFP-tagged (rabbit) (UniProt Q05152); assay: co-IP; lysates (RIPA buffer) of co-transfected HEK-293 cells; 1 mg protein with 3-5 ug specific or control (IgG0) antibody overnight at 4°C, rProtein G agarose, Western blot

Substance | binding [3] | also measured
CaV2.2α1 subunit of the N-type calcium channel, GFP-tagged (from UniProt Q05152 1-2339) |  | binding [1]: binds
CaV2.2α1 subunit, endogenous in rat brain (from UniProt Q02294 1-2336) |  | binding [2]: binds
Parkin, HA-tagged (from UniProt O60260 1-465) (enzyme) | binds | 
ubiquitin-protein ligase E3A (UBE3A), HA-tagged (from UniProt Q05086 1-875) (enzyme) | binds | 
